Laboratory results taken from patent US20220347299A1, “FLUORESCENT SYSTEMS FOR BIOLOGICAL IMAGING AND USES THEREOF” (LIGHTOX LIMITED, priority 2019, published 2022).

System: primary, HPV-negative oral squamous carcinoma cells (SJG-26 and SJG-41)
Assay: CellTitreGlo cell viability assay, cell line not given
Format: cell-based
Conditions: light or radiation study; cell line not stated (SJG-26 / SJG-41); not irradiated; data not shown

O=C(CCCCCCC(=O)Nc1ccccc1)NO [vorinostat]
IC50: 1600 nM
